This passage reports binding results from PMC10008584, “Cryo-EM structures of human Cx36/GJD2 neuronal gap junction channel” (Nature Communications, 2023).

Amino acid sequences for entries named in this document (tags omitted). A change or cut given only in a name is not applied to a line headed by its entry.
UniProt Q9UKL4: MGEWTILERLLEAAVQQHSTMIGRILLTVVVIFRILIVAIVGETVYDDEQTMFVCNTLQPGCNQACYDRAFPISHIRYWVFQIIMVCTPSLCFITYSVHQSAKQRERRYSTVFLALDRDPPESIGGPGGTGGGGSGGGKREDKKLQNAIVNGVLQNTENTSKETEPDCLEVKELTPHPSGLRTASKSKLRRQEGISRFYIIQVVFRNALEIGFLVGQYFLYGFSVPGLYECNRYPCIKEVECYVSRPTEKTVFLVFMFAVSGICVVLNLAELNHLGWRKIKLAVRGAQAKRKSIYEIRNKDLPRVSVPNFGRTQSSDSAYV

Experiment [1] has as its target C-terminally eYFP-tagged human Cx36-K238E (for FSEC) (human) (UniProt Q9UKL4). Description: SEC; fluorescence-detection size-exclusion chromatography (FSEC) of eYFP-tagged Cx36 solubilised in 20 mM HEPES pH 7.5, 200 mM NaCl, 5 mM EDTA, 1% LMNG; soluble fraction on Superose 6 Increase 5/150 GL. (SEC sorts molecules by how far they enter the pores of the column.)
The target of experiment [2] is C-terminally eYFP-tagged human Cx36-WT (for FSEC) (human) (UniProt Q9UKL4). Described as above.

No constants are given. Whether binding was seen depends on the method and setting. Some binding calls cover weakened binding; strength is not graded here.

For “C-terminally eYFP-tagged human Cx36-K238E (for FSEC) (from UniProt Q9UKL4 1-321)”, the binding entry in experiment [1] is “binds”.

On to “C-terminally eYFP-tagged human Cx36-WT (for FSEC) (from UniProt Q9UKL4 1-321)”, for which the binding result in experiment [2] was “binds”.
